Paper PMC7761126
Results are given in words; binding and its absence hold for the method and conditions named. In cells and extracts the contact can be indirect. Binding can be weak; no strength is given.

What was measured:
[1] = biological target: T1, leucine-rich repeat in flightless 1 interaction protein 1 (rat (endogenous in primary cortical neurons and brain)) (UniProt Q66HF9); experiment: co-IP; direct and reverse: ischemic rat brain tissue homogenate (MCAO) in SDS-free RIPA, overnight with anti-DAPK1 or anti-LRRFIP1 capture antibody, protein G magnetic beads, SDS elution, WB
T1 sequence: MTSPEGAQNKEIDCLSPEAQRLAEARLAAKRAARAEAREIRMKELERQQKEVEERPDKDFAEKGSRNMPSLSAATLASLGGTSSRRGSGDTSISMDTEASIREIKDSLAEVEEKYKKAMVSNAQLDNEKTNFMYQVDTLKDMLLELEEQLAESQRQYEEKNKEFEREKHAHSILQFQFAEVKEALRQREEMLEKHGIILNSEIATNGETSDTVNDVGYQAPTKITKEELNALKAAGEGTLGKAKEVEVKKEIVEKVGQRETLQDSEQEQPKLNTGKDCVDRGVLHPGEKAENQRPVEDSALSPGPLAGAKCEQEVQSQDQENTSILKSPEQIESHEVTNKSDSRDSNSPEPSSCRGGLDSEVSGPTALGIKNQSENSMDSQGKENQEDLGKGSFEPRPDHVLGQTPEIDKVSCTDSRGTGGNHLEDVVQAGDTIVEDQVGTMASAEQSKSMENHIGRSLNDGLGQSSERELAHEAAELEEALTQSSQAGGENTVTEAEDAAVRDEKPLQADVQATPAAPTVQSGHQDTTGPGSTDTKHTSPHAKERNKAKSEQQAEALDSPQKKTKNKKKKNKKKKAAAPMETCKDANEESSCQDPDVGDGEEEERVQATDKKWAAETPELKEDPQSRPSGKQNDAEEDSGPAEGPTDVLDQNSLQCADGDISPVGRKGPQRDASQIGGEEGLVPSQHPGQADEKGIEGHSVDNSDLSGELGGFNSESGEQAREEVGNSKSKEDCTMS

[2] = biological target: T1, leucine-rich repeat in flightless 1 interaction protein 1 (rat (endogenous in primary cortical neurons and brain)); experiment: co-IP; direct and reverse: extracts of primary rat cortical neurons (control, NMDA 30 min or OGD) in SDS-free RIPA, overnight with anti-DAPK1 or anti-LRRFIP1 capture antibody, protein G magnetic beads, SDS elution, WB
[3] = biological target: Death-associated protein kinase 1 (rat (endogenous in primary cortical neurons and brain)); experiment: co-IP; IP of DAPK1 with anti-DAPK1 antibody from extracts of rat cortical neurons (control or OGD), Dynabeads Co-IP kit elution buffer, partners detected by WB
[4] = biological target: Death-associated protein kinase 1 (rat (endogenous in primary cortical neurons and brain)); experiment: co-IP; direct and reverse: ischemic rat brain tissue homogenate (MCAO) in SDS-free RIPA, overnight with anti-DAPK1 or anti-LRRFIP1 capture antibody, protein G magnetic beads, SDS elution, WB
[5] = biological target: Death-associated protein kinase 1 (rat (endogenous in primary cortical neurons and brain)); experiment: co-IP; direct and reverse: extracts of primary rat cortical neurons (control, NMDA 30 min or OGD) in SDS-free RIPA, overnight with anti-DAPK1 or anti-LRRFIP1 capture antibody, protein G magnetic beads, SDS elution, WB

In the case of “Death-associated protein kinase 1 (enzyme)”, the binding [1] is reported as “binds” and the binding [2] is reported as “binds”.

B1: GAIP interacting protein at C terminus (protein, UniProt Q9Z254 1-333)
chain: MPLGLGRRKKAPPLVENEEAEPSRSGLGVGEPGPLGGSGAGESQMGLPPPPASLRPRLVFHTQLAHGSPTGRIEGFTNVKELYGKIAEAFRLPAAEVMFCTLNTHKVDMDKLLGGQIGLEDFIFAHVKGQRKEVEVFKSEDALGLTITDNGAGYAFIKRIKEGSVIDHIQLISVGDMIEAINGQSLLGCRHYEVARLLKELPRGRTFTLKLTEPRKAFDMISQRSSGGHPGSGPQLGTGRGTLRLRSRGPATVEDLPSAFEEKAIEKVDDLLESYMGIRDTELAATMVELGKDKRNPDELAEALDERLGDFAFPDEFVFDVWGAIGDAKVGRY
B1 was tested, and the binding [3] was “binds”.

B2: leucine-rich repeat in flightless 1 interaction protein 1 (protein, UniProt Q66HF9 1-738)
chain: MTSPEGAQNKEIDCLSPEAQRLAEARLAAKRAARAEAREIRMKELERQQKEVEERPDKDFAEKGSRNMPSLSAATLASLGGTSSRRGSGDTSISMDTEASIREIKDSLAEVEEKYKKAMVSNAQLDNEKTNFMYQVDTLKDMLLELEEQLAESQRQYEEKNKEFEREKHAHSILQFQFAEVKEALRQREEMLEKHGIILNSEIATNGETSDTVNDVGYQAPTKITKEELNALKAAGEGTLGKAKEVEVKKEIVEKVGQRETLQDSEQEQPKLNTGKDCVDRGVLHPGEKAENQRPVEDSALSPGPLAGAKCEQEVQSQDQENTSILKSPEQIESHEVTNKSDSRDSNSPEPSSCRGGLDSEVSGPTALGIKNQSENSMDSQGKENQEDLGKGSFEPRPDHVLGQTPEIDKVSCTDSRGTGGNHLEDVVQAGDTIVEDQVGTMASAEQSKSMENHIGRSLNDGLGQSSERELAHEAAELEEALTQSSQAGGENTVTEAEDAAVRDEKPLQADVQATPAAPTVQSGHQDTTGPGSTDTKHTSPHAKERNKAKSEQQAEALDSPQKKTKNKKKKNKKKKAAAPMETCKDANEESSCQDPDVGDGEEEERVQATDKKWAAETPELKEDPQSRPSGKQNDAEEDSGPAEGPTDVLDQNSLQCADGDISPVGRKGPQRDASQIGGEEGLVPSQHPGQADEKGIEGHSVDNSDLSGELGGFNSESGEQAREEVGNSKSKEDCTMS
B2 was tested, and the binding [4] was “binds”, the binding [3] was “binds” and the binding [5] was “binds”.
